Measured values published in PubChem BioAssay (EPA / NIEHS).
For some of these results: Shown are results outside the selection of hits, which stands elsewhere. The list shows a part of the results, in another mix than the full data. Records with an inconclusive call do not appear. Activity calls are given as the source filed them. Rule for the calls, unless noted: active = hit-call score of the fitted dose curve at least 0.9, where 1 is the maximum; inconclusive = response in the unintended direction; inactive = score below 0.9.

By UniProt entry, the sequences of proteins in these tests, tags left out. Where a name states a change or a piece, a line headed by the entry shows the natural chain unless it says otherwise.
UniProt P03372, whole entry, looked up: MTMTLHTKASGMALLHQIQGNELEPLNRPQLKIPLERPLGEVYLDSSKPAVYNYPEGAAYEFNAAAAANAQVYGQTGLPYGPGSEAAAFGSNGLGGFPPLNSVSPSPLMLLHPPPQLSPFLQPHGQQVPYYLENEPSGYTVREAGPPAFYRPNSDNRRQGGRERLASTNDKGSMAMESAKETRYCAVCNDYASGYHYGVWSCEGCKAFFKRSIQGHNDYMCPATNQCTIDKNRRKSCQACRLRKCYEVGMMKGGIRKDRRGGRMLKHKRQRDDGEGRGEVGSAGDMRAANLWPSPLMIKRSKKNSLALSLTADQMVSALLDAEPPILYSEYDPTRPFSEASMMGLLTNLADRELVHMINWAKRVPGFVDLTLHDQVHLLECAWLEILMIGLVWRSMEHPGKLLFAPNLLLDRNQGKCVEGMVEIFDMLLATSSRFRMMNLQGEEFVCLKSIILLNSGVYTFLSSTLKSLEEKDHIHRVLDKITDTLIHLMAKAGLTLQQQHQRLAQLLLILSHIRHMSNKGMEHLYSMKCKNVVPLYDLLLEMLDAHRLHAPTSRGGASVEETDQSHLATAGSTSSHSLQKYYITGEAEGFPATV
UniProt P37231: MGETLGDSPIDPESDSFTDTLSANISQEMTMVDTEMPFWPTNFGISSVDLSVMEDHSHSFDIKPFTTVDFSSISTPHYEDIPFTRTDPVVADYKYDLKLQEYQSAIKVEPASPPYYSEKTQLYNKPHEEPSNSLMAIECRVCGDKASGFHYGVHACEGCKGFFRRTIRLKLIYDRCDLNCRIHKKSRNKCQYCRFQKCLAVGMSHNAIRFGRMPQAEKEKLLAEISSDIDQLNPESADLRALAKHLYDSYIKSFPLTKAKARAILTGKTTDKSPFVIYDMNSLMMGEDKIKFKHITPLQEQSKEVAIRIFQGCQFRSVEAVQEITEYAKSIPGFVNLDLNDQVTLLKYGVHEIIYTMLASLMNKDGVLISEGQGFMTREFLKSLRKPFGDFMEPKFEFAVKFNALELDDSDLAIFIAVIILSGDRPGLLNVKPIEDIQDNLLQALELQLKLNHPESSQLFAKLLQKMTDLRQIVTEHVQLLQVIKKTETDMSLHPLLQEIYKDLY
UniProt P19328, whole entry, looked up: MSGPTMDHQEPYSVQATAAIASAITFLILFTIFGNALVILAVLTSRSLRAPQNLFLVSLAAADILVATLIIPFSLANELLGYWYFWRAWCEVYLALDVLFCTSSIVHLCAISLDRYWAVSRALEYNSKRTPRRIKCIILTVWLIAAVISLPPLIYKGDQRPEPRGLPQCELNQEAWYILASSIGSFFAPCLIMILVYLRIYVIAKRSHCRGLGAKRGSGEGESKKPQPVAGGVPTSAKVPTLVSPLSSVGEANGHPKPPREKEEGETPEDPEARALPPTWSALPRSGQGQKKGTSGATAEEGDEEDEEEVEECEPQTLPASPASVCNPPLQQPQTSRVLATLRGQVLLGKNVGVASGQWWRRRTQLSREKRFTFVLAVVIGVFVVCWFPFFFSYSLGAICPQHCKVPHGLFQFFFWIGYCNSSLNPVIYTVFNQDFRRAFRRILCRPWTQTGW
UniProt P30536, whole entry, looked up: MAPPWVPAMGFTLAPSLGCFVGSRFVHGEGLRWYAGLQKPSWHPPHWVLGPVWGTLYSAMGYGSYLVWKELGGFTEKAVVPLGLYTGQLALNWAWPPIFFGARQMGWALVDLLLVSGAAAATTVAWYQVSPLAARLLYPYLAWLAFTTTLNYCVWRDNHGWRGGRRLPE
UniProt Q92731, whole entry, looked up: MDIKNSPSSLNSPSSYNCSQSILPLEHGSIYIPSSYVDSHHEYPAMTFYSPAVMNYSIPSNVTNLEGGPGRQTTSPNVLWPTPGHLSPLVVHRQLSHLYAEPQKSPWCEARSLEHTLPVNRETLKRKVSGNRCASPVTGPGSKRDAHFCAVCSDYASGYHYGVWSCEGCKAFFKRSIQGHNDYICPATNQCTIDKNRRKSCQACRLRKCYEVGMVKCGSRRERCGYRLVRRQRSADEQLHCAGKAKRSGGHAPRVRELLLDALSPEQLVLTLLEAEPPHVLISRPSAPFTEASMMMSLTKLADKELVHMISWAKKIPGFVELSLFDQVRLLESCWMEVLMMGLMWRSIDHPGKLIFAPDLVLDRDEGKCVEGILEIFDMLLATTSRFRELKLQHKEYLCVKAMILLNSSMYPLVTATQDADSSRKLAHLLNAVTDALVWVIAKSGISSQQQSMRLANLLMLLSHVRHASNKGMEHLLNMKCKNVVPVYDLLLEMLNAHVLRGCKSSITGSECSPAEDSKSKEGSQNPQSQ
UniProt Q96RI1: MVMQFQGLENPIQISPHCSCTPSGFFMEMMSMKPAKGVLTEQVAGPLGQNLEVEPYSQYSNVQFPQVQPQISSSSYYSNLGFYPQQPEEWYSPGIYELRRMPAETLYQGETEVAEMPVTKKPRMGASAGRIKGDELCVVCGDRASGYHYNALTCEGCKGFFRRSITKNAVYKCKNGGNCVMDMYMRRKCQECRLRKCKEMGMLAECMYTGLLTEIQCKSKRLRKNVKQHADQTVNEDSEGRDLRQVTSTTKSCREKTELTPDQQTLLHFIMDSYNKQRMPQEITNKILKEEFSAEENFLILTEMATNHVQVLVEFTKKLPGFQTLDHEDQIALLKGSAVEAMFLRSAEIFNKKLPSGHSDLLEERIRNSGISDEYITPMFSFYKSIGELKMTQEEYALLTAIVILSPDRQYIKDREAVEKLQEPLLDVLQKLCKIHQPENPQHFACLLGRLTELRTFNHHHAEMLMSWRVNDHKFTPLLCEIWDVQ

What was measured:
[1] = molecular target: Estrogen receptor (Homo sapiens) (UniProt P03372); test: OT_ER_ERaERa_1440: Odyssey Thera (OT) 24-hour HEK293T Protein-Complementation Assay for Estrogen Receptor-alpha/-alpha Homodimer (AID 2283349);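 note: hits raise fluorescence above DMSO for agonists and antagonists alike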
Outline: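 HEK293T cells stably expressing the human ER alpha ligand-binding domain (aa 310-547) as a homodimer PCA were dosed for 24 hours. Fluorescence intensity was read by laser scanning cytometry, and gain of signal was fitted relative to DMSO vehicle.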

[2] = molecular target: Peroxisome proliferator-activated receptor gamma (Homo sapiens) (UniProt P37231); test: OT_PPARg_PPARgSRC1_1440: Odyssey Thera (OT) 24-hour Protein-Complementation Assay for Peroxisome Proliferator-activated Receptor Gamma/ SRC-1 Co-activator (AID 2283388);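 note: nuclear to cytoplasmic ratio of reconstituted Venus YFP fluorescence in fixed imaged cells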
Outline: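 Cells carrying the PPARg/SRC-1 fragment-complementation reporter receive compound for 24 hours, are fixed and counterstained with Draq5, then imaged. Increased nuclear relative to cytoplasmic YFP fluorescence above DMSO baseline indicates binding activity.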

[3] = read-out: Lipase C (LIPC), LIPC (gene 3990); test: LTEA_HepaRG_LIPC: Life Technologies and Expression Analysis (LTEA) Assay for Lipase C (LIPC) using HepaRG (AID 2283514; active = hit-call score of the fitted dose curve at least 0.9, where 1 is the maximum; inactive = score below 0.9); settings: actives raise or lower the signal; mRNA level, 48 h
Outline: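 HepaRG cells, 48 h after plating, treated in duplicate for 48 h in serum-free induction medium over 8 half-log concentrations from 100 uM, 0.5% DMSO. LIPC mRNA by TaqMan qRT-PCR normalized to ACTB/GAPDH/POLR2A; bidirectional fit versus DMSO.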

[4] = read-out: solute carrier (SLC22A1), SLC22A1 (gene 6580); test: LTEA_HepaRG_SLC22A1: Life Technologies and Expression Analysis (LTEA) Assay for solute carrier (SLC22A1) using HepaRG (AID 2283524; active = hit-call score of the fitted dose curve at least 0.9, where 1 is the maximum; inactive = score below 0.9); settings: actives raise or lower the signal; mRNA level, 48 h
Outline: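 Differentiated human HepaRG cells in serum-free induction medium, exposed 48 h in duplicate to 8-point half-log series from 100 µM top in 0.5% DMSO. SLC22A1 mRNA by TaqMan qRT-PCR normalized to ACTB, GAPDH, POLR2A; bidirectional fit versus DMSO.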

Adra2b (gene 24174) = Adra2b (gene 24174) (UniProt P19328); test: NVS_GPCR_rmAdra2B: NovaScreen (NVS) G Protein-Coupled Receptor Assay for hybird cells Adrenergic, Alpha 2B Receptor (Adra2B) (AID 2283306)
Outline: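 Radioligand filter-binding assay on membrane proteins from neuroglioma/blastoma hybrid cells (rodent), 1 h after dosing; scintillation counting, loss of signal vs DMSO. Primary screen in duplicate at 25 uM, actives then run in concentration series.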

[5] = read-out: Heat shock 70 kDa protein 1 (HSPA1A), gene 3303; test: LTEA_HepaRG_HSPA1A: Life Technologies and Expression Analysis (LTEA) Assay for Heat shock 70 kDa protein 1 (HSPA1A) using HepaRG (AID 2283502; active = hit-call score of the fitted dose curve at least 0.9, where 1 is the maximum; inactive = score below 0.9); settings: actives raise or lower the signal; mRNA level, 48 h
Outline: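 HSPA1A induction in human HepaRG liver cells is measured after 48 h of chemical treatment (100 uM maximum, 0.5% DMSO vehicle). Expression comes from qRT-PCR normalized to endogenous controls.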

[6] = molecular target: human Peripheral-type Benzodiazepine Receptor (PBR), TSPO (gene 706) (UniProt P30536); test: NVS_MP_hPBR: NovaScreen (NVS) Membrane Protein Assay for human Peripheral-type Benzodiazepine Receptor (PBR) (AID 2283331);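 note: hits reduce radioligand binding relative to DMSO baseline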
Outline: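 Radioligand displacement on human colonic cell membranes, 1 h incubation; bound radioactivity by filtration and scintillation counting. Primary screen in duplicate at 25 uM single concentration, actives followed up in concentration series; loss of binding versus DMSO.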

[7] = molecular target: Estrogen receptor (Homo sapiens) + Estrogen receptor beta (Homo sapiens) (UniProt P03372+Q92731); test: OT_ER_ERaERb_1440: Odyssey Thera (OT) 24-hour HEK293T Protein-Complementation Assay for Estrogen Receptor-alpha/-beta Homodimer (AID 2283356);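 note: heteromer of ER alpha and ER beta binding domains; hits raise reporter fluorescence and both agonists and antagonists give an increase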
Outline: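 24 h exposure; HEK293T PCA cells with ERα/ERβ LBD fragments; signal rise in nuclear or whole-cell fluorescence over vehicle.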

[8] = molecular target: Bile acid receptor (Homo sapiens) (UniProt Q96RI1); test: OT_FXR_FXRSRC1_1440: Odyssey Thera (OT) 24-hour HEK293T Protein-Complementation Assay for Farnesoid X receptor/SRC-1 Co-activator (AID 2283384)
Outline: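 Cell-based binding reporter: interaction of FXR with SRC-1 brings reporter fragments together, giving a fluorescence signal read 24 h after dosing of HEK293T cells.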

[9] = TAMU_PeakParms_SingleDonor1434_Asystole: Texas A&M University (TAMU) 1.5-hr Human Induced Pluripotent Stem Cell (iPSC)-derived Cardiomyocytes Calcium (Ca+2) Flux Assay for Cardiotoxicity: Asystole (quiescence of beating) (AID 2284328)
Outline: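 Donor 1434 iPSC-cardiomyocytes exposed 90 min at 37C, 5% CO2, to 0.2, 1, 10 and 100 uM in 0.5% DMSO. Ca2+ dye fluorescence gave average peak frequency; POD is EC95, a 95% beat-rate drop versus controls.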

## Cc1nc(C)nc(N2C[C@@H](C)N(c3ccnc([C@@H](C)O)n3)[C@@H](C)C2)n1
[1]
  outcome: inactive
[2]
  outcome: inactive
[3]
  outcome: inactive
[4]
  outcome: inactive

## COCCOc1cc2cc(C(=O)NC3CCN(C(C)C)CC3)n(CC(=O)Nc3ccc(Cl)cn3)c2cn1
Adra2b (gene 24174)
  AC50: active: 6.84 µM
[5]
  outcome: inactive

## CN(c1nccc(=O)[nH]1)C1CCN(c2nc3ccccc3n2Cc2ccc(F)cc2)CC1
[6]
  AC50: active: 15.8 µM

## CC(C)C(=O)Nc1ccc([N+](=O)[O-])c(C(F)(F)F)c1
[7]
  outcome: inactive
[8]
  AC50: active: 31.9 µM
[9]
  outcome: inactive
